Primary screen of a compound library

Protein sequences, listed by entry. Tags and fused reporters are not part of them.
UniProt E9BF75, entry or part of it: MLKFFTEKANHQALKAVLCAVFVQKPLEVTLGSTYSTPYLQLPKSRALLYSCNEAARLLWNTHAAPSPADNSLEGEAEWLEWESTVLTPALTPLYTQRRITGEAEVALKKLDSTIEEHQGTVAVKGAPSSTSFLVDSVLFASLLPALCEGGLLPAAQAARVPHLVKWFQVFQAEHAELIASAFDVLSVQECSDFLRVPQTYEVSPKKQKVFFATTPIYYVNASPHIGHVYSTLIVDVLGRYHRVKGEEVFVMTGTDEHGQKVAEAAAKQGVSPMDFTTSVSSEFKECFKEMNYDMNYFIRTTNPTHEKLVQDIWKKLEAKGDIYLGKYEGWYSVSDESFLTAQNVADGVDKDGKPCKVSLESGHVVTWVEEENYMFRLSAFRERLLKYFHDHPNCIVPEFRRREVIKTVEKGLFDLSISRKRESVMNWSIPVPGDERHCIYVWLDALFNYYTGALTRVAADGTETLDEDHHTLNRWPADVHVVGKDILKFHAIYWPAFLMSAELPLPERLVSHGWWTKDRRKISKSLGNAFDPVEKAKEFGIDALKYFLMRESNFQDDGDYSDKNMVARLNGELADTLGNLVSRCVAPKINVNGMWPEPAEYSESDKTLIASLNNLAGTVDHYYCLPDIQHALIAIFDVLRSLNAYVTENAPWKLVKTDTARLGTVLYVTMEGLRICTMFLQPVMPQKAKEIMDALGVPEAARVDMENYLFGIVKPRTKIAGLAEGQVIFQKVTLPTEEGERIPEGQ

Measurements from “University of Dundee, Small-Polar-MMV Screening Library” (2021), ChEMBL document CHEMBL3988442.

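Primary screen of methionyl-tRNA synthetase; the read-out is not stated. Target: Methionyl-tRNA synthetase (putative), Leishmania donovani (UniProt E9BF75). The test concentration is not given. Values are per cent inhibition. Size under these conditions: about 68,000 compounds, about 24 of them at 50% or above in at least one test.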

Results are percentages, as filed.
The record does not define 0% and 100%; most values in the screen are far below 50% and negative numbers occur (in some assays of this library far below -100).
Compounds were drawn at random from those tested, without regard to their results.

| Compound | inhibition |
|---|---|
| `CCc1nc(C2CCCN2Cc2nnc(C3CCC3)o2)no1` (stereo not drawn) | 14.92 |
| `CCC(C)(NCC(=O)NC(=O)NC)c1nc(C)cs1` (stereo not drawn) | 10.68 |
| `CNC(=O)c1cccc(CC2COCCN(Cc3ccc(C)o3)C2)n1` (stereo not drawn) | 18.35 |
| `Cc1nsc(N2CCCN(CC(=O)N(C)C3CC3)CC2)n1` | 7.563 |
| `CC(C)C(=O)NCc1ccc(N2CCCC2)nc1` | 11.96 |
| `CC(C)C(C)NC(=O)CN1CCSCC1` (stereo not drawn) | 1.882 |
| `COc1ccc(-c2cn[nH]c2)cc1CNC1CCCC1` | 5.651 |
| `CN(C)C(=O)CN1CCO[C@H]2CN(Cc3ccoc3)C[C@H]21` | 20.26 |
| `CCOc1ccc(CC(=O)N2CCCC2c2cc(C)on2)cc1` (stereo not drawn) | 8.992 |
| `OCC1COCCN(Cc2cc(C3CCCCC3)no2)C1` (stereo not drawn) | 12.89 |
| `CN1CCCCC1CC(=O)Nc1ccc2ncn(C)c2c1` (stereo not drawn) | 2.174 |
| `Cc1cnn(CC2CCCN2CCCS(=O)(=O)N(C)C)c1` (stereo not drawn) | 29.19 |
| `CCCC1COCCN1Cc1ccc(S(=O)(=O)NC)cc1` (stereo not drawn) | 0.2825 |
| `CC1c2ncc(Cn3cncn3)n2CCN1C(=O)[C@H]1CCCO1` (stereo partly drawn) | 7.945 |
| `Cc1nsc(N2CCN(CC(=O)N(C3CC3)C(C)C3CC3)CC2)n1` (stereo not drawn) | 0.2801 |
| `CC[C@@]1(O)CCN(Cc2cc(C3CCCCC3)no2)C[C@H]1O` | 6.62 |
| `CCN(CC)CCNC(=O)c1nn(CC)cc1Cl` | 8.714 |
| `Cc1cnn(CCNCc2cccc(C#N)c2)c1` | 14.29 |
| `COc1ccc(NC(C)c2nnnn2-c2ccccc2)cn1` (stereo not drawn) | 17.37 |
| `CC(C)c1noc(C(C)N2CCN(Cc3nnc(C4CC4)o3)CC2)n1` (stereo not drawn) | 15.32 |
| `CC(C)c1cc(C2CCN(C(=O)Cn3nc4ccccc4n3)CC2)[nH]n1` | 10.3 |
| `CC(C)(O)CN1CCN(C(=O)c2ccc3c(c2)COC3)CC1` | 15.49 |
| `Fc1ccc(CN2CCOC(Cn3cncn3)C2)c2ncccc12` (stereo not drawn) | 7.453 |
| `CS(=O)(=O)CCCC(=O)Nc1cc(Cl)c(Cl)cn1` | -2.899 |
| `COCCNC(=O)c1nn(-c2cccc(C(C)C)c2)cc1O` | 4.124 |
| `NC(=O)c1ccc(OCCC(=O)NC2CCc3c(F)cccc32)cc1` (stereo not drawn) | 3.873 |
| `Cc1ccc(NC2CCCN(CCCc3ccccc3)C2)nn1` (stereo not drawn) | 22.06 |
| `CCS(=O)(=O)N1CCOC2(CCCN(c3cnccn3)C2)C1` (stereo not drawn) | 14.07 |
| `O=C1CN(C(=O)C2CCOC2)CCN1Cc1ccc(Cl)cc1` (stereo not drawn) | 11.54 |
| `CCc1cc(NC2CCOCC2)n2nc(C)c(C)c2n1` | 16.15 |
| `CC(c1ccc(C(=O)NCCc2nc(N)cc(O)n2)o1)N1CCCCC1` (stereo not drawn) | 1.882 |
| `COc1ncccc1C(=O)N1CC[C@H]2C[C@H](c3nnc(C)[nH]3)O[C@@H]2C1` | 21.04 |
| `CC(C)CCNC(=O)c1sccc1N(C)S(=O)(=O)c1ccccc1` | -0.7042 |
| `O=C(c1c[nH]c(=O)[nH]c1=O)N1CCCC(c2nccn2CC2CCC2)C1` (stereo not drawn) | 16.27 |
| `O=C(Cn1ccc(=O)cc1)N1C[C@H]2CC[C@@H]1CN(c1ncccn1)C2` | 15.08 |
| `CCOCCCNC(=O)NCc1c(C)nn(C)c1C` | 6.402 |
| `COC(=O)c1cc(C(=O)N2CCOCC2(C)C)n(-c2ccccc2)n1` | 17.35 |
| `O=C(CS(=O)(=O)c1cccc[n+]1[O-])NC1CCCc2ccccc21` (stereo not drawn) | 9.926 |
| `O=c1c2cccc(F)c2ncn1CCN1CCOCC1` | 4.57 |
| `CCC[C@H]1CN(S(C)(=O)=O)C[C@@H]1NC(=O)CCCn1ccnc1` | 6.407 |
| `COCCN1CCC(N(Cc2noc(C3CC3)n2)C(C)=O)C1` (stereo not drawn) | 3.492 |
| `CCc1nnc(CNC(=O)CCC2CCCN(C)C2)s1` (stereo not drawn) | 2.542 |
| `O=C(CCc1ccc2c(c1)OCO2)N1CCCCC1Cn1cccn1` (stereo not drawn) | 16.02 |
| `Cn1cc(C[C@H]2[C@H](N3CCOCC3)CCN2C(=O)c2ccc[nH]2)cn1` | 13.19 |
| `CCSc1cc(C(=O)N(CC(F)F)C(C)C)ccn1` | 11.25 |
| `O=C(O)[C@H]1OCC(=O)N(Cc2cccc(Cl)c2)[C@@H]1c1ccccc1` | 19.37 |
| `CNC(=O)c1n[nH]c2c1C(c1cccc3nsnc13)CC(=O)N2` (stereo not drawn) | 11.54 |
| `O=C(NC1CC1)N1CCc2ncnc(-c3ccncc3)c2CC1` | 3.766 |
| `CC(C)OCCCNC(=O)c1ccc(-c2ccco2)[nH]c1=O` | 8.497 |
| `CC(C)N(C)Cc1cn2c(n1)CN(Cc1ccsc1)CC2` | 10.5 |
| `N#Cc1ccccc1CN1CCc2sccc2C1` | 8.059 |
| `CN(C)c1ccccc1C(=O)N1CCCC(c2ccc(C(=O)O)cc2)C1` (stereo not drawn) | 12.38 |
| `COCC(=O)NCCc1nc2cc(-c3ccc(OC)cc3)ncn2n1` | 12.21 |
| `Cc1onc(N)c1S(=O)(=O)N1CCCCC1C` (stereo not drawn) | 10.05 |
| `CN(C)Cc1nc(-n2cnc(C(=O)NCC3CC3)c2)n2ccccc12` | 4.396 |
| `CN(C)c1ccc(C(=O)NCC2(c3ccccc3)CCOCC2)cc1` | 6.643 |
| `Cn1cccc1C(=O)N1CC[C@H]2[C@H]1CCN2CC1CCOCC1` | 9.343 |
| `O=C1NCC2(CCCN(Cc3ccc(Cl)s3)C2)Oc2ccccc21` (stereo not drawn) | 15.03 |
| `Cc1cc(N(C)C)nc(C2CCNC2)n1` (stereo not drawn) | 3.797 |
| `COC1COC2(CCN(Cc3ccc(Cl)cc3)CC2)C1` (stereo not drawn) | 4.323 |
| `Cc1cccc(N(C)Cc2cc(=O)n3oc(C)cc3n2)c1` | 22.58 |
| `CNc1ncc(C(=O)N2CCOC(C(=O)N3CCCCCC3)C2)cn1` (stereo not drawn) | 12.77 |
| `COCC1CC2(CCN(C(=O)c3cnc4ccccc4c3)CC2)CO1` (stereo not drawn) | 6.164 |
| `COCCC(=O)N1CC[C@@H](N2CCOCC2)[C@@H]1Cc1ccccc1` | 3.268 |
| `CC(C)c1nc(CN(C)C(=O)CCNC(=O)c2ccccc2F)no1` | 9.966 |
| `Cc1nc2ncccn2c1C(=O)N1CCc2[nH]cnc2C1` | 6.15 |
| `O=C(NCCCn1cccn1)C1(c2ccc(F)cc2)CC1` | 11.33 |
| `CCN(C(=O)COc1nc(C(C)(C)C)no1)C1CC1` | 10.59 |
| `COC(=O)N1CCCCC1C(=O)N1CCN(c2cccnc2)CC1` (stereo not drawn) | 3.343 |
| `CN(Cc1n[nH]c(=O)n1CCc1ccccc1F)S(C)(=O)=O` | 13.66 |
| `COc1ccc(-n2c(CO)nc3ccccc32)cc1CO` | 12.63 |
| `CCn1cnnc1C1CCN(C(=O)c2cc(OC)ccc2OC)CC1` | 11.11 |
| `CN(Cc1nnc(C2CC2)n1C)C1CCN(Cc2ccncc2)C1` (stereo not drawn) | 14.44 |
| `COc1ccc(CN2C[C@@H]3OCCN(CCN(C)C)[C@@H]3C2)cc1` | 6.667 |
| `CN(C)S(=O)(=O)N1CC[C@]2(O)CCN(c3ncccn3)C[C@@H]2C1` | 14.78 |
| `O=C(CCc1cscn1)N1CCCC(c2ccn[nH]2)C1` (stereo not drawn) | 14.98 |
| `COCCNC(=O)NC1(c2ccccc2F)CC1` | 19 |
| `Cc1cccc(CN2CCC3(CCCN(C(=O)NC4CC4)C3)C2=O)n1` (stereo not drawn) | 2.941 |
| `CN(C)C(=O)N1CCN(C(=O)c2ccn3cncc3c2)CC1` | 16.25 |
| `c1ccc(CN2CCCC(c3nccnc3-n3ccnc3)C2)cc1` (stereo not drawn) | 2.439 |
| `CCc1nc(CNc2ccc(C(=O)N3CCSCC3)cc2C)no1` | 17.95 |
| `CC(C)NC(=O)Nc1ccc(CS(C)(=O)=O)cc1` | 6.402 |
| `CC(C)c1noc(CCCC(=O)NCC2CCS(=O)(=O)C2)n1` (stereo not drawn) | 9.036 |
| `c1cnn(CC2CN(Cc3nc(-c4ccsc4)no3)CCO2)c1` (stereo not drawn) | 19.39 |
| `Cc1cnc(N2CCOC3(COCCN(c4nccs4)C3)C2)nc1` (stereo not drawn) | 14.57 |
| `O=C(Nc1cccc(OCc2cccc(F)c2)c1)C1COCCO1` (stereo not drawn) | 5.854 |
| `COCCC(=O)N1CC2(CCN(Cc3ccoc3)C2)C1` | -2.439 |
| `CCC[C@@H]1CN(C(=O)c2cc(-c3cccs3)n(C)n2)C[C@H]1NS(C)(=O)=O` | 21.32 |
| `COc1ccc(-c2cc(=O)n3c(n2)CCCCC3)cc1` | 11.26 |
| `CN1CCN(C(=O)[C@@H]2CC[C@@H]3[C@@H](CCN3c3ncccn3)O2)CC1` | 15.79 |
| `CN(CC1CCN(CCO)CC1)CC(O)c1ccc(F)c(F)c1` (stereo not drawn) | 0.8174 |
| `O=C(NCCCN1CCOCC1)c1cc(-c2ccc3c(c2)CCO3)n[nH]1` | 11.2 |
| `c1cc(CN2CCc3ncc(CN4CCOCC4)n3CC2)cs1` | 1.25 |
| `CCN(CC)CC[C@H]1CN(C(=O)C2CCC2)CC[C@H]1CC(=O)O` | 10.99 |
| `CC(=O)N1CCO[C@@H]2CN(S(=O)(=O)C3CC3)CC[C@@H]2C1` | 13.95 |
| `CCC(C)C(=O)NCc1ccc(-n2cncn2)nc1` (stereo not drawn) | 5.842 |
| `O=c1oc(-c2cccs2)nn1CC1(O)CCCCC1` | 27.07 |
| `Cc1cnn(CC2CCCN2C(=O)c2csc(C(C)C)n2)c1` (stereo not drawn) | 5.525 |
| `CN(C)CCN1CCOC2(CCN(c3nccs3)CC2)c2ccccc21` | 6.574 |
| `Cc1occc1CNC(=O)C1CCCN1C(=O)C1CC1` (stereo not drawn) | 7.99 |
| `O=c1cccnn1CC1CN(CC2CCCC2)Cc2nccn2C1` (stereo not drawn) | 11.23 |
| `Cc1ccc(C2(O)CCN(C(=O)c3ccc(S(N)(=O)=O)cc3)CC2)nc1` | 1.809 |
| `CC(Cc1ccccc1F)C(=O)Nc1ccc(OCCC(N)=O)cc1` (stereo not drawn) | 14.57 |
| `Cc1nccn1C1CCCN(C(=O)c2ccc3c(c2)NC(=O)CO3)C1` (stereo not drawn) | 13.07 |
| `CCN1CC(=O)NCC12CCN(C(=O)c1ccco1)C2` (stereo not drawn) | 3.889 |

The last 7 entries again:

| Compound | inhibition |
|---|---|
| `CN(C)CCN1CCOC2(CCN(c3nccs3)CC2)c2ccccc21` | 6.574 |
| `Cc1occc1CNC(=O)C1CCCN1C(=O)C1CC1` (stereo not drawn) | 7.99 |
| `O=c1cccnn1CC1CN(CC2CCCC2)Cc2nccn2C1` (stereo not drawn) | 11.23 |
| `Cc1ccc(C2(O)CCN(C(=O)c3ccc(S(N)(=O)=O)cc3)CC2)nc1` | 1.809 |
| `CC(Cc1ccccc1F)C(=O)Nc1ccc(OCCC(N)=O)cc1` (stereo not drawn) | 14.57 |
| `Cc1nccn1C1CCCN(C(=O)c2ccc3c(c2)NC(=O)CO3)C1` (stereo not drawn) | 13.07 |
| `CCN1CC(=O)NCC12CCN(C(=O)c1ccco1)C2` (stereo not drawn) | 3.889 |